Laboratory results published in the supplement of paper PMC12823440, “Inhibitors supercharge kinase turnover through native proteolytic circuits” (Nature, 2025).
Where a name gives a salt, the structure may show the parent alone. The list shows a part of the results. The calls rarely recur for the same compound in another form.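 Kinases, fused to nanoluciferase, were expressed in K562 cells; luminescence was measured every 4 h from 2 to 18 h as percent of control (DMSO = 100%, positive control = 0%). A time point is decreased if signal falls significantly (2 sigma). Hits were called by the authors by a rule that is not shown; the count of time points alone does not decide it.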

The chains behind the UniProt entries cited, without tags or fusion partners. Where a name states a change or a piece, a line headed by the entry shows the natural chain unless it says otherwise.
UniProt Q13546: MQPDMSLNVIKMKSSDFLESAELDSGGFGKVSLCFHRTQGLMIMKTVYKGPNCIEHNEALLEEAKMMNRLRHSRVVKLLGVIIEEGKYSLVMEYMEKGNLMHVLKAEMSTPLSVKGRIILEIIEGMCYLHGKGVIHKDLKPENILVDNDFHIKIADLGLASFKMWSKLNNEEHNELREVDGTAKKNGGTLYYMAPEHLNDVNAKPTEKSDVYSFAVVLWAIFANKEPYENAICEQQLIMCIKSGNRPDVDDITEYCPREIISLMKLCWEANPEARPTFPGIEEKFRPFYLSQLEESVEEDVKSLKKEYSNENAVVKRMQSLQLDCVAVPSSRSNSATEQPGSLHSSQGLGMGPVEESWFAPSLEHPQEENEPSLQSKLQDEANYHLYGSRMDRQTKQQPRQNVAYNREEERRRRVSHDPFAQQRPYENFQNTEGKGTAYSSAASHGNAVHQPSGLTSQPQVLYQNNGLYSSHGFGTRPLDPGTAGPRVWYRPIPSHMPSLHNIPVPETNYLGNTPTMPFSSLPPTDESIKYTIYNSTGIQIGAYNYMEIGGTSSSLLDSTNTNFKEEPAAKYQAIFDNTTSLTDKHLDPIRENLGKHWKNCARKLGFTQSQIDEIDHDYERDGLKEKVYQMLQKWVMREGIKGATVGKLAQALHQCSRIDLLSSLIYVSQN

These compounds were tested against RIPK1 (UniProt Q13546) (assay: number of time points (of 5) at which kinase-Nluc abundance scored as decreased, DMSO-normalised (count); higher = more persistent destabilization). Conditions: K562; 2-18 h.

| SMILES | number of time points |
| --- | --- |
| C[C@H]1CC[C@]2(NC1)O[C@H]1C[C@H]3[C@@H]4CC[C@H]5C[C@@H](O[C@@H]6O[C@H](CO)[C@H](O[C@@H]7O[C@H](CO)[C@@H](O)[C@H](O[C@@H]8OC[C@@H](O)[C@H](O)[C@H]8O)[C@H]7O[C@@H]7O[C@H](CO)[C@@H](O)[C@H](O)[C@H]7O)[C@H](O)[C@H]6O)CC[C@]5(C)[C@H]4CC[C@]3(C)[C@H]1[C@@H]2C [Tomatine] (2.5 µM) | 0 |
| CCCCNc1nc(N)c2[nH]c(=O)n(Cc3ccc(C)nc3)c2n1 (10 µM) | 0 |
| C[C@H](CCC(=O)O)C[C@H](C)C[C@H](C)C(=O)/C=C(\O)[C@H](C)C[C@H](C)C/C=C/[C@@H](C)[C@@H](O)[C@@H](C)[C@@H](O)C[C@@H]1CC[C@@](C)([C@H]2CC[C@@](C)([C@@H](C)O)O2)O1 [Ionomycin (calcium)] (2.5 µM) | 0 |
| CCOC(=O)c1c(/C(C#N)=C\N)c2ccc(Cl)c(Cl)c2n1C (10 µM) | 0 |
| CC(=O)OC(C)(C)/C=C/C(=O)[C@](C)(O)[C@H]1[C@H](O)C[C@@]2(C)[C@@H]3CC=C4[C@@H](C=C(O)C(=O)C4(C)C)[C@]3(C)C(=O)C[C@]12C [Cucurbitacin E] (2.5 µM) | 3 |
| O=C1C=CC[C@@H]2[C@H]3CCCN4CCC[C@@H](CN12)[C@@H]34 [Sophocarpine (monohydrate)] (2.5 µM) | 0 |
| C=CC(=O)Nc1ccc2[nH]c(=O)n(C3CCN(Cc4ccc(-c5nc6cc[nH]c(=O)c6cc5-c5ccccc5)cc4)CC3)c2c1 [Borussertib] (10 µM) | 0 |
| O=C1C=CC[C@@H]2[C@H]3CCCN4CCC[C@@H](CN12)[C@@H]34 [Sophocarpine] (10 µM) | 0 |
| C=CC(=O)N[C@H]1C=C(C)c2c(-c3cnc4ccccc4c3)c3c(N)ncnc3n2C1 (10 µM) | 0 |
| Cn1cc(C2=C(c3cn(C4CCN(Cc5ccccn5)CC4)c4ccccc34)C(=O)NC2=O)c2ccccc21 [Enzastaurin] (10 µM) | 0 |
| CCN1CCN(C(=O)Cc2ccc(Nc3ncc(F)c(Nc4ccc(C(=O)Nc5ccccc5Cl)cc4)n3)cc2)CC1 (2.5 µM) | 0 |
| C[C@H]1CC[C@]2(NC1)O[C@H]1C[C@H]3[C@@H]4CC[C@H]5C[C@@H](O)CC[C@]5(C)[C@H]4CC[C@]3(C)[C@H]1[C@@H]2C [Tomatidine (hydrochloride)] (10 µM) | 0 |
| O=[N+]([O-])/C=C/c1ccc2c(c1)OCO2 (2.5 µM) | 0 |
| NCCc1cn(S(=O)(=O)c2c(Cl)nc3sccn23)c2ccccc12 (10 µM) | 0 |
| COc1ccc(N(C(=O)Oc2c(C)cccc2C)c2ccnc(Nc3ccc(N4CCN(C)CC4)cc3)n2)c(OC)c1 (2.5 µM) | 0 |
| Cc1ccccc1-n1c(Cn2cnc3c(N)ncnc32)nc2cccc(C)c2c1=O (10 µM) | 0 |
| Cc1[nH]ncc1-c1cc2nc([C@H]3CC4CCN3CC4)[nH]c(=O)c2s1 [(R)-Simurosertib] (10 µM) | 0 |
| CC1C(=O)OC2C(O)C34C5OC(=O)C3(OC3OC(=O)C(O)C34C(C(C)(C)C)C5O)C12O (stereo not given) [Ginkgolide C] (10 µM) | 0 |
| O=C(/C=C/c1ccccc1)OC[C@H]1O[C@@H](O[C@@H]2OC=C[C@H]3[C@H](O)[C@@H]4O[C@]4(CO)[C@@H]23)[C@H](O)[C@@H](O)[C@@H]1O [Picroside I] (10 µM) | 0 |
| CC1=C[C@]23C(=O)[C@@H](C=C(CO)[C@@H](O)[C@]2(O)[C@H]1O)[C@H]1[C@@H](C[C@H]3C)C1(C)C [Ingenol] (10 µM) | 0 |
| O=Cc1cn(Cc2ccc(Cl)cc2)c2ccccc12 [Oncrasin-1] (10 µM) | 0 |
| C[C@@H]1CC[C@H]2[C@@H](C)C(=O)O[C@@H]3O[C@@]4(C)CC[C@@H]1[C@]32OO4 [Artemisinin] (10 µM) | 0 |
| C[C@H](Nc1ncnc2[nH]cnc12)c1nc2ccc(F)cc2c(=O)n1-c1ccccc1 [Acalisib] (10 µM) | 0 |
| O=C1c2ccccc2C(=O)c2c1cccc2-c1cnn(C2CCNCC2)c1 [PDK4-IN-1 (hydrochloride)] (10 µM) | 0 |
| Cc1ccccc1-n1c(Cn2ncc3c(N)ncnc32)nc2cccc(C)c2c1=O (10 µM) | 0 |

At a glance, part of the list above.

| SMILES | number of time points |
| --- | --- |
| O=C1C=CC[C@@H]2[C@H]3CCCN4CCC[C@@H](CN12)[C@@H]34 [Sophocarpine] (10 µM) | 0 |
| C=CC(=O)N[C@H]1C=C(C)c2c(-c3cnc4ccccc4c3)c3c(N)ncnc3n2C1 (10 µM) | 0 |
